Patent US10188727B2, “Bifunctional molecules with antibody-recruiting and entry inhibitory activity against the human immunodeficiency virus” (YALE UNIVERSITY, priority 2009, dated 2019)
At least one compound was matched to its structure with a doubt left.

Tests used:
[1] = tested on: gp120; assay: Anti-DNP IgG recruiting ELISA; design: species or system HIV-1; details: no binding to gp120 alone
[2] = tested on: CHO-gp120 cells; assay: Immunofluorescence microscopy, recruitment of labeled anti-DNP antibodies; format: cell-based, Chinese hamster; details: CHO-gp120 cells incubated with compound and labeled anti-DNP antibodies
Method: Immunofluorescence (FIG. 3)
Confluent CHO-WT (env expressing) or CHO-K1 (non-env expressing) cells were incubated on cover slips (15CIR-1D, Fisher) over 2 nights at 37° C. in 5% CO2. Cover slips were washed with DPBS (1 mL, Gibco) and then cells fixed with 4% parafomaldehyde in DPBS at 4° C. for 10 minutes. […] Cover slips then washed with Buffer E (2×70 μl) and incubated with AlexaFluor488 rabbit anti-DNP IgG antibodies (Invitrogen) at 15 μg/ml in Buffer E (70 μl) for 1 hr at 4° C. All cover slips were washed prior to mounting onto slides using Gel Mount mounting medium (Biomeda Corp.) with Buffer E and water. Corresponding competition experiments were performed in the presence of recombinant human T-cell CD4 (ImmunoDiagnostics, Inc; Woburn, Mass.), BMS-378806 (1) and DNP-PEG-alkyne (2). Cells were checked using a Zeiss Axiovert 200M fluorescence microscope equipped with a GFP filter.

[3] = tested on: CHO-gp120 cells; assay: CDC assay (complement-dependent cytotoxicity) on Env-expressing cells; format: cell-based, Chinese hamster; details: rabbit complement, fixed concentration of anti-DNP antibodies
Method: CDC Assay (FIG. 4 and FIG. 8)
CHO-WT or CHO-K1 cells taken from a T-75 flask (˜80% confluent), were washed once with DPBS (Gibco, 5 mL), and cells were then detached with 2.5 mM EDTA/0.5 mM EGTA in DPBS. Resulting cell suspension was centrifuged at 900 rpm for five minutes, then pellet was aspirated and re-suspended at a density of 9.00×10^5 cells/mL in Buffer E. Subsequently, cell suspension was added to prepared dilutions of ARM-H (4) (or control molecule) in Buffer E. Resulting cell mixtures were plated in triplicate (50 μL, 22,500 cells/well)□ onto 96 well plates (CoStar, black sides/clear bottom), covered with tin foil and incubated at 4° C. for 1.5 hours. To each well, 50 μL of 20% rabbit complement serum (v/v, Aldrich) and 100 μg/mL rat anti-DNP IgG (Zymed; Carlsbad, Calif.) in Buffer E was added, resulting in a 10% (v/v) complement and 50 μg/mL antibody concentration per well. Negative control wells containing only ARM-H dilutions were prepared in addition to maximum cell death controls (0.15% H2O2). Covered plate was incubated for an additional hour at 4° C. and then for 4 hours at room temperature. […] Cell viability was determined using the luciferase-based CellTiter-Glo Luminescent Cell Viability Assay (Promega). Complement mediated cell death and cytotoxicity was calculated as: [1−((sample-max killing)/(untreated-max killing))]×100 and plotted using GraphPad Prism. […]

[4] = tested on: CHO-WT (CHO-K1) cells; assay: CDC assay on cells lacking the Env glycoprotein; format: cell-based, Chinese hamster

## C[C@@H]1CN(C(=O)c2ccccc2)CCN1C(=O)C(=O)c1c[nH]c2nccc(OCCOCCOCCOCCOCCOCCn3cc(COCCOCCOCCOCCNc4ccc([N+](=O)[O-])cc4[N+](=O)[O-])nn3)c12 [ARM-H]
[1]
  anti-DNP antibody binding to the ARM-H-gp120 complex: concentration-dependent increase
[2]
  fluorescence from recruited AlexaFluor 488-labeled anti-DNP antibodies: strong fluorescence signal
[3]
  complement-dependent cell killing: Substantial cell killing
[4]
  cell death in cells lacking the Env glycoprotein: no cell death was observed
